This is one part of the list.

By UniProt entry, the sequences of proteins in these tests, tags left out.
UniProt Q0JBA9, entry or part of it: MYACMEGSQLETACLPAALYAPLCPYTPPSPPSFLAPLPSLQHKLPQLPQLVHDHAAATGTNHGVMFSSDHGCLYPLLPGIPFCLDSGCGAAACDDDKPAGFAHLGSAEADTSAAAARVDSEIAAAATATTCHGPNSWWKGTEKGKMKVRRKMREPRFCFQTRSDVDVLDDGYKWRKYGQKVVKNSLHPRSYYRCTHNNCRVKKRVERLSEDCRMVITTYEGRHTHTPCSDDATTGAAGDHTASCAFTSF

The test addresses OsWRKY34 (Oryza sativa, UniProt Q0JBA9 1-250). Description: protein-binding microarray (RPBM); PBS, 2% BSA, 51.3 ng/ul salmon testes DNA, 50 uM zinc acetate, 200 nM TF, 25 C, 1 h; high values mean tight binding. Conditions: protein: recombinant; tags: N-terminal polyhistidine and DsRed monomer fusion (pET32a); label: CyDye5-dUTP incorporated in the synthesized complementary strand; 3' TTTTT single-stranded linker to array surface; dsDNA, one strand shown. The essentials:
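Per-feature fluorescence intensity (arbitrary units), read on an Axon 4000B scanner, is the binding signal. Transcription factors carrying an N-terminal polyhistidine tag and DsRed fusion were expressed in E. coli BL21-CodonPlus and purified on Ni–NTA. A custom Agilent array, made double-stranded by primer extension with Cy5-dUTP and blocked with 2% BSA, was incubated with 200 nM protein in PBS, 2% BSA, salmon testes DNA and 50 µM zinc acetate at 25 °C for 1 h and then washed.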
As for “TAGCAACTGAGGTTTCTCTTGGCCTTTTCATATTGTCATACGGAGTCACCTAGTGCAG”, the binding signal was 10300 fluorescence intensity (a.u.).

Turning to “TGTGGATGATGGTATTTTTTTTCCTTTTTCCTAGTTACGACGGAGTCACCTAGTGCAG”, the binding signal is 9100 fluorescence intensity (a.u.).

For the sequence “TTTAGCGGGTTGATGTGACATACTTGTATTAGTTTTTAGGCGGAGTCACCTAGTGCAG”, the binding signal is 8560 fluorescence intensity (a.u.).

As for “CTTCAATACCATTTATCTACATATTAGTCTTATTATGTTTCGGAGTCACCTAGTGCAG”, the binding signal is 9920 fluorescence intensity (a.u.).

Consider “CTTTCTCGTTCTATGTCCGTGTCTCGTGTTCTTGAAGCTCCGGAGTCACCTAGTGCAG”, for which the binding signal was 9040 fluorescence intensity (a.u.).

With “CCGTTTGAGTTTATTTTTTACATGGTTGGTTCCTGTGAGTCGGAGTCACCTAGTGCAG”, the binding signal is 8360 fluorescence intensity (a.u.).

As for “CTTCGCAGTGGGCCCCACATGTCATAGAGCGTGGGTAGGGCGGAGTCACCTAGTGCAG”, the binding signal is 8300 fluorescence intensity (a.u.).

Take “GAGGAGGGTGGAGGGGAGGGTGAAGGCAGTTTTGGAGGCGCGGAGTCACCTAGTGCAG”: the binding signal was 15500 fluorescence intensity (a.u.).

In the case of “GCGACAACAACTTCGCATGCATTTGATATTTCTTCTGTAACGGAGTCACCTAGTGCAG”, the binding signal was 9270 fluorescence intensity (a.u.).

“CCCTGATCACACGTTCCACACCTCGCAGCGCCACCACATCCGGAGTCACCTAGTGCAG”: the binding signal is 9260 fluorescence intensity (a.u.).

On to “CCTGGTAGCCATGTACTTTAGTGCCCGTTGGTGGTTTATACGGAGTCACCTAGTGCAG”, for which the binding signal is 8540 fluorescence intensity (a.u.).

Consider “GTGCAACTGGCATCTACACTTGTATTATCTGTGCCAGCTCCGGAGTCACCTAGTGCAG”, for which the binding signal was 8220 fluorescence intensity (a.u.).

“CAAACTTTCAATTTTTCCGTCACATCGTTTTAATTTATTTCGGAGTCACCTAGTGCAG”: the binding signal was 8720 fluorescence intensity (a.u.).

As to “AACACATCACACAAGCAATAGGCATCTCTCTCTTCTTTCTCGGAGTCACCTAGTGCAG”, the binding signal is 11400 fluorescence intensity (a.u.).

For “AATACGTGACCGTCCACCCTTGTACACTGTCCGGACAGACCGGAGTCACCTAGTGCAG”, the binding signal was 8100 fluorescence intensity (a.u.).

In the case of “TTTGACCTCGGCTCGATCGACCATCCCGCGGAGGAGACGACGGAGTCACCTAGTGCAG”, the binding signal is 9230 fluorescence intensity (a.u.).

As for “CACCTGTCACTCGCTCACACATCCCAGCGCTTTACAGTAGCGGAGTCACCTAGTGCAG”, the binding signal was 9690 fluorescence intensity (a.u.).

For “GCAACTGCCCTACCATGTATGATGCTCCTGTATTCTGTCTCGGAGTCACCTAGTGCAG”, the binding signal is 9210 fluorescence intensity (a.u.).

For “CTAATTTTTAGACCTTGATTGGCTTCTTTCAGGCTGCTCACGGAGTCACCTAGTGCAG”, the binding signal is 8060 fluorescence intensity (a.u.).

Take “CGCTCACCCACCGTCGCTCCGCCCGCCACCCGCCACCCACCGGAGTCACCTAGTGCAG”: the binding signal was 10900 fluorescence intensity (a.u.).

Regarding “TTGTCCCCAGGCAATGACCGTATGACCAATTGCATTGTTTCGGAGTCACCTAGTGCAG”, the binding signal was 8120 fluorescence intensity (a.u.).

Consider “AATCTTCTAACCACCGTACGTTCTCCTCGCACTATAAATACGGAGTCACCTAGTGCAG”, for which the binding signal was 11500 fluorescence intensity (a.u.).

For the sequence “TATATAATGAAATGTGGTGTGGTGGTGTAGATGGCGTTGTCGGAGTCACCTAGTGCAG”, the binding signal was 8160 fluorescence intensity (a.u.).

“CACTGGCATGTCATGTCACATTATCACGGCACCGGCCGGCCGGAGTCACCTAGTGCAG”: the binding signal was 8060 fluorescence intensity (a.u.).

As for “TCTTCCCCGTCGCCGCGCACCTCCCGATCCCTCCCTCCGCCGGAGTCACCTAGTGCAG”, the binding signal is 8360 fluorescence intensity (a.u.).

For “AATGATTACAACCTACCTCTTCTCAGCGGGGTGTCCATTACGGAGTCACCTAGTGCAG”, the binding signal was 8260 fluorescence intensity (a.u.).

“GTTGATCGCGCATGTTGGGTTTTCTTGGCTCCCGAATCCGCGGAGTCACCTAGTGCAG”: the binding signal was 9030 fluorescence intensity (a.u.).

Regarding “ACCACTTAATCTTTATCTTTGTTAGATTCATTACTACTATCGGAGTCACCTAGTGCAG”, the binding signal was 8310 fluorescence intensity (a.u.).

Consider “GCCTTTGAGCTCATTCTTCCCCATCTTCTCTTCTTATTCTCGGAGTCACCTAGTGCAG”, for which the binding signal is 13300 fluorescence intensity (a.u.).

Consider “TCTCTTTCTTTCCTTAACTCTCTTTCTCTACTCTCCACTCCGGAGTCACCTAGTGCAG”, for which the binding signal was 9580 fluorescence intensity (a.u.).

In the case of “AAAACCCTGTGATTTTCTGCAACTTTCTACCTATTTTTTTCGGAGTCACCTAGTGCAG”, the binding signal was 11200 fluorescence intensity (a.u.).

Take “CTATATATATACCTCCTCACCCCACAGGCCACACCCGTCCCGGAGTCACCTAGTGCAG”: the binding signal was 9020 fluorescence intensity (a.u.).

For the sequence “CTCTACTGTTCTGTGACCGTGCGCGTCGTCTGTCCGTCCACGGAGTCACCTAGTGCAG”, the binding signal was 8070 fluorescence intensity (a.u.).

As for “CAATTGGTTGCATTTTTCTCCTCAACTATCTTAATACAATCGGAGTCACCTAGTGCAG”, the binding signal was 9830 fluorescence intensity (a.u.).

Consider “GCCACCGGCCGTTCTACATCTCGCGCGCGGCCTCCGGTCGCGGAGTCACCTAGTGCAG”, for which the binding signal is 9430 fluorescence intensity (a.u.).

On to “TTTTTCTACATGTTCACAATCCATAGAATTTAAATTGCCACGGAGTCACCTAGTGCAG”, for which the binding signal was 8340 fluorescence intensity (a.u.).

As for “ATTTTTTGGTAATTCGGTCTTTTCGGTCTATTCGGTTACCCGGAGTCACCTAGTGCAG”, the binding signal is 8730 fluorescence intensity (a.u.).

On to “TTGCTTATGGTGTTGCTGCTGGTCTATAAATTCATGTACACGGAGTCACCTAGTGCAG”, for which the binding signal is 9330 fluorescence intensity (a.u.).

For the sequence “GTCTGTACCGTCCCCGCGCCGACTCGAGGGCAGAGAGCTCCGGAGTCACCTAGTGCAG”, the binding signal is 8330 fluorescence intensity (a.u.).

With “CATACCCATATAATTGACTTGTAGCATTTATAGTTTTGTACGGAGTCACCTAGTGCAG”, the binding signal is 10100 fluorescence intensity (a.u.).

As to “TAGCTATTATCCGTCCGAATCCGCTCTGTTTTCACCCCTACGGAGTCACCTAGTGCAG”, the binding signal is 9590 fluorescence intensity (a.u.).

As for “ATTCGATTCGCTATTTAATGTGGTGTGGTTTTCTTCTCCGCGGAGTCACCTAGTGCAG”, the binding signal was 9140 fluorescence intensity (a.u.).

The values above are taken from paper PMC7819943, “Rice protein-binding microarrays: a tool to detect cis-acting elements near promoter regions in rice”.
